Test results reported in publication PMC4491177, “Co-translational capturing of nascent ribosomal proteins by their dedicated chaperones” (Nature Communications, 2015).
No constants are given. Whether binding was seen depends on the method and setting. Some binding calls cover weakened binding; strength is not graded here. For some assays here: Tags and fused reporters may be left off the sequences shown. Blank lines part the entries; values can stand above or below the substance they belong to.

Amino acid sequences for entries named in this document (tags omitted). A change or cut given only in a name is not applied to a line headed by its entry.
UniProt P14126: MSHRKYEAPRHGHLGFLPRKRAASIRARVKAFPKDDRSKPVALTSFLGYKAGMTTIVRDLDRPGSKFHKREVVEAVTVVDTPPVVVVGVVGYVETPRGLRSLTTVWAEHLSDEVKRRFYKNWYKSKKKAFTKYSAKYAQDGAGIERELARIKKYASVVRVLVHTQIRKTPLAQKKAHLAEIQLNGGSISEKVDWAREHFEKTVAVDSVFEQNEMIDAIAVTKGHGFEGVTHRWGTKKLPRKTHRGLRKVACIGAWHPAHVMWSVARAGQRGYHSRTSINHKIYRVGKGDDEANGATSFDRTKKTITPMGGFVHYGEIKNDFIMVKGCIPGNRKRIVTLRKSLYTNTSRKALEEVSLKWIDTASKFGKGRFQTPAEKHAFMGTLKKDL

Legend:
[1] = target: T1, NTAP-Rrb1 (S. cerevisiae) (UniProt Q04225); assay: tandem-affinity purification (TAP); TAP-tagged bait purified from yeast cell lysates; 50 mM Tris-HCl (pH 7.5), 100 mM NaCl, 1.5 mM MgCl2, 5% glycerol, 0.1% NP-40; final EGTA eluates on SDS-PAGE, Coomassie staining
T1 sequence: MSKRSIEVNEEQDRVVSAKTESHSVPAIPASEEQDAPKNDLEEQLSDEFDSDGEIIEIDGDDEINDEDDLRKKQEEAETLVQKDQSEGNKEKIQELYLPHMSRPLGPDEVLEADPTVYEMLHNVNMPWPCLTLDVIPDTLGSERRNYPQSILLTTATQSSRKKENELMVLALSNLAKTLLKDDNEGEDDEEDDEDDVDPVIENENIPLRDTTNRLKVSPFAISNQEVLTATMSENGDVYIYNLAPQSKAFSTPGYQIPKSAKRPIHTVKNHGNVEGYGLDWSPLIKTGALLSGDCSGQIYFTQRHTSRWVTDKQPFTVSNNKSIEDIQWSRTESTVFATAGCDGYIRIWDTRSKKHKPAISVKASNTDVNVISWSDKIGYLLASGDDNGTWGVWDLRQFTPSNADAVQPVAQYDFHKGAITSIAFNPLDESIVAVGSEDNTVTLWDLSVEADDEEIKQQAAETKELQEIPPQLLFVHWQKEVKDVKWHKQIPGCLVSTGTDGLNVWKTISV

[2] = target: T2, Rrb1 (yeast two-hybrid fusion) (S. cerevisiae) (UniProt Q04225); assay: two-hybrid; bait fused to the Gal4 DNA-binding domain, prey to the Gal4 activation domain, reporter strain PJ69-4A; HIS3 and ADE2 reporters, plates 3 days at 30 °C
T2 sequence: T1 sequence

[3] = target: T3, Rrb1.60C (yeast two-hybrid fusion) (S. cerevisiae) (UniProt Q04225); assay: as above
T3 sequence: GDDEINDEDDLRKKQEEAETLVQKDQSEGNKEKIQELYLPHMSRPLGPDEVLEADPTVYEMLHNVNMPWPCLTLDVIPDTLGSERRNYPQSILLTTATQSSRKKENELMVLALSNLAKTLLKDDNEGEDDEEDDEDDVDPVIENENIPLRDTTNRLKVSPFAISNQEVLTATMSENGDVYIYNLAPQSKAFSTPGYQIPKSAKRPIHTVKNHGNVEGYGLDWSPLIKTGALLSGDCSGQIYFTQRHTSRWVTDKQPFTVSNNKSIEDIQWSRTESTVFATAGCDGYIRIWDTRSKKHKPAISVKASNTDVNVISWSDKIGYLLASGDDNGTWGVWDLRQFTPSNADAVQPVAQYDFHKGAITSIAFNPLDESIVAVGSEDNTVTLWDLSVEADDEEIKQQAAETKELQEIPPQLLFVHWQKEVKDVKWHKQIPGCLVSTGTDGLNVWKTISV

[4] = target: T1, NTAP-Rrb1 (S. cerevisiae); assay: affinity purification of a TAP-tagged bait from yeast cells (in vivo co-purification); Sqt1-TAP or NTAP-Rrb1 bait; yEGFP fusions or 2xHA-tagged ribosomal proteins as prey; Supplementary Fig. 3b,c, methods not shown

binding [1]: binds
Substance: Rpl3 (endogenous) (from UniProt P14126 1-387)

binding [2]: binds | binding [3]: binds
Substance: Rpl3 (yeast two-hybrid fusion) (from UniProt P14126 1-387)

binding [4]: binds
Substance: Rpl3-2xHA (from UniProt P14126 1-387)

binding [2]: no binding
Substance: Rpl3.8C (yeast two-hybrid fusion) (from UniProt P14126 8-387) (domain or fragment)
